At least one compound was matched to its structure with a doubt left.
Key:
[1] = system: PI 3-kinase (p110α/p85α); assay: PI 3-kinase inhibition assay; type: biochemical; settings: selectivity ratio from the IC50s for PI 3-kinase and DNA-PK
Text: In order to assess the inhibitory action of the compounds against PI 3-kinase in vitro, the following assay was used to determine IC50 values.
Baculoviral recombinant GST-fused PI 3-kinase (p110α/p85α) was purified from Sf9 insect cells using GSH-sepharose affinity chromatography as described (Wymann, M. T et al., (1996) Wortmannin inactivates phosphoinositide 3-kinase by covalent modification of Lys-802, a residue involved in the phosphate transfer reaction. Mol. Cell Biol. 16:1722-1733). PI 3-kinase (1 μl) was diluted in reaction buffer (89 μl of 50 mM Hepes pH 7.5, 150 mM NaCl, 0.1 mM Sodium Orthovanadate, containing 20 μg of phosphatidylinositol) and varying concentrations of inhibitor compound added. […] Reactions were incubated for a further 20 minutes at 37° C., before quenching with the addition of 400 μl of chloroform/methanol (1:1). Reactions were acidified by the addition of 200 μl of 1M HCl, before separation of the organic and aqueous phases by centrifugation at 10,000 g for 30 seconds. […] Counts per minute, following a one minute counting time, were recorded for each reaction. The inhibition of PI 3-kinase activity by compounds was calculated as described above for the DNA-PK assay.
(§1) The selectivity was determined by the following equation: […]

[2] = system: ATM protein; assay: ATM inhibition assay (immunoprecipitated ATM, GSTp53N66 substrate); type: biochemical, human; settings: selectivity ratio from the IC50s for ATM and DNA-PK
Experimental: In order to assess the inhibitory action of the compounds against ATM in vitro, the following assay was used to determine IC50 values.
ATM protein was immunoprecipitated from HeLa cell nuclear extract using rabbit polyclonal antisera raised to the C-terminal ˜500 amino-acid residues of the human ATM protein. The immunoprecipitation was performed according to the methodology described by Banin, S. et al. (1998) Enhanced phosphorylation of p53 by ATM in response to DNA damage. Science 281:1674-1677. 10 μl of immunoprecipitated ATM in Buffer C (50 mM Hepes, pH 7.4, 6 mM MgCl2, 150 mM NaCl, 0.1 mM sodium orthovanadate, 4 mM MnCl2, 0.1 mM dithiothreitol, 10% glycerol) was added to 32.5 μl of buffer C containing 1 μg of the ATM substrate GSTp53N66 in a V-bottomed 96 well polypropylene plate. The GSTp53N66 substrate is the amino terminal 66 amino acid residues of human wild type p53 fused to glutathione S-transferase. ATM phosphorylates p53 on the residue serine 15 (Banin, S. et al. (1998) Enhanced phosphorylation of p53 by ATM in response to DNA damage. Science 281:1674-1677). Varying concentrations of inhibitor were then added. […] Counts per second, following a one second counting time, were recorded for each reaction. The inhibition of ATM activity by compounds was calculated as described above for the DNA-PK assay.
as §1

With `O=c1cc(N2CCOCC2)oc2cc(OCc3ccc(F)cc3)ccc12` [Compound 414, 7-(4-Fluoro-benzyloxy)-2-morpholin-4-yl-chromen-4-one] the “Δ(DNA-PK/PI 3-K)” value [1] was 63 and the “Δ(DNA-PK/ATM)” value [2] was >67.

From patent US7674823B2, “DNA-PK inhibitors” (Cancer Research Technology Limited, priority 2001, dated 2010)
